Binding data for six molecules are collected here from PMC2860243.

Amino acid sequences for entries named in this document (tags omitted).
UniProt P20263: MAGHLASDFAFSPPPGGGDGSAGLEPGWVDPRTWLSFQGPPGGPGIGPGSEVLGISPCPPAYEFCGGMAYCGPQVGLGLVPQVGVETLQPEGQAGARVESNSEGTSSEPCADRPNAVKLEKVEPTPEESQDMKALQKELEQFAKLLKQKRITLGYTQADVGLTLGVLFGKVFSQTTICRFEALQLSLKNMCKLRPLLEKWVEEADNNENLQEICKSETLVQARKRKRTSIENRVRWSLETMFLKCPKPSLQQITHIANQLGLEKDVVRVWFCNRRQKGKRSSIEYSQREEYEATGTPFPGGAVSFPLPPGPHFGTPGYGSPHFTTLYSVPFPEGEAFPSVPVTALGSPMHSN

B1: Rybp (protein, UniProt Q8CCI5 1-228)
chain: MTMGDKKSPTRPKRQAKPAADEGFWDCSVCTFRNSAEAFKCSICDVRKGTSTRKPRINSQLVAQQVAQQYATPPPPKKEKKEKVEKPDKEKPEKDKDISPSVTKKNTNKKTKPKSDILKDPPSEANSIQSANATTKTSETNHTSRPRLKNVDRSTAQQLAVTVGNVTVIITDFKEKTRSSSTSSSTVTSSAGSEQQNQSSSGSESTDKGSSRSSTPKGDMSAVNDESF
B2: Zfp219 (protein, UniProt Q6IQX8 1-726)
chain: MEGSRPRILVGHLEPSPPAFDGELDLQRYSNGPGVSGTPGPGSPGMGAVGWSETRAGERRFPCPVCGKRFRFNSILALHLRAHPGAQAFQCPHCGHRAAQRALLRSHLRTHQPERPRSPAARLLLELEERALLREARLGRARSSGGMQSSPAAEGLARPQVPSSSAFRCPFCKGKFRTSAERERHLHILHRPWKCSLCSFGSSQEEELLHHSLTAHGASERPLAATSTPEPPPPPQQEPRSALEPEPEPEPRPEPDREANPAPTPAPPEEPPAPPEFRCQVCGQSFTQSWFLKGHMRKHKASFDHACPVCGRCFKEPWFLKNHMKVHTSKLGPLRAPGPGSAPARAPQPPDLSLLAYEPLGPALLLAPAPAPAERREPPSLLGYLSVRAGEVRPNGEGADPGGGRSYGGFRPLPSALPNRARRHRTEEPEEEEEVVEAEEESWARGRSLGSLTSLHPNPGEGSGQPAPAAGTQARSTATQEENGLLVGGTRSEAGRGATGKDCPFCGKSFRSAHHLKVHLRVHTGERPYKCPHCDYAGTQSGSLKYHLQRHHREQRSSAGPGPPPEPPPPSQRGSLQPQSGAKPTQASATWVEGTASTRPPSSSTGPGSRRKPASPGRTLRNGRGGEAEPLDLSLRAGPGGEAGAGGALHRCLFCPFATGAPELMALHLQVHHSRRARGRRQPRADTSPTYVRAPSGETPPSPPLEEEGSPGLSRSGEAGLGGQER
B3: Smc1a (protein, UniProt Q9CU62 1-1233)
chain: MGFLKLIEIENFKSYKGRQIIGPFQRFTAIIGPNGSGKSNLMDAISFVLGEKTSNLRVKTLRDLIHGAPVGKPAANRAFVSMVYSEEGAEDRTFARVIVGGSSEYKINNKVVQLHEYSEELEKLGILIKARNFLVFQGAVESIAMKNPKERTALFEEISRSGELAQEYDKRKKEMVKAEEDTQFNYHRKKNIAAERKEAKQEKEEADRYQRLKDEVVRAQVQLQLFKLYHNEVEIEKLNKELASKNKEIEKDKKRMDKVEDELKEKKKELGKMMREQQQIEKEIKEKDSELNQKRPQYIKAKENTSHKIKKLEAAKKSLQNAQKHYKKRKGDMDELEKEMLSVEKARQEFEERMEEESQSQGRDLTLEENQVKKYHRLKEEASKRAATLAQELEKFNRDQKADQDRLDLEERKKVETEAKIKQKLREIEENQKRIEKLEEYITTSKQSLEEQKKLEGELTEEVEMAKRRIDEINKELNQVMEQLGDARIDRQESSRQQRKAEIMESIKRLYPGSVYGRLIDLCQPTQKKYQIAVTKVLGKNMDAIIVDSEKTGRDCIQYIKEQRGEPETFLPLDYLEVKPTDEKLRELKGAKLVIDVIRYEPPHIKKALQYACGNALVCDNVEDARRIAFGGHQRHKTVALDGTLFQKSGVISGGASDLKAKARRWDEKAVDKLKEKKERLTEELKEQMKAKRKEAELRQVQSQAHGLQMRLKYSQSDLEQTKTRHLALNLQEKSKLESELANFGPRINDIKRIIQSREREMKDLKEKMNQVEDEVFEEFCREIGVRNIREFEEEKVKRQNEIAKKRLEFENQKTRLGIQLDFEKNQLKEDQDKVHMWEQTVKKDENEIEKLKKEEQRHMKIIDETMAQLQDLKNQHLAKKSEVNDKNHEMEEIRKKLGGANKEMTHLQKEVTAIETKLEQKRSDRHNLLQACKMQDIKLPLSKGTMDDISQEEGSSQGEESVSGSQRTSSIYAREALIEIDYGDLCEDLKDAQAEEEIKQEMNTLQQKLNEQQSVLQRIAAPNMKAMEKLESVRDKFQETSDEFEAARKRAKKAKQAFEQIKKERFDRFNACFESVATNIDEIYKALSRNSSAQAFLGPENPEEPYLDGINYNCVAPGKRFRPMDNLSGGEKTVAALALLFAIHSYKPAPFFVLDEIDAALDNTNIGKVANYIKEQSTCNFQAIVISLKEEFYTKAESLIGVYPEQGDCVISKVLTFDLTKYPDANPNPNEQ
B4: Phc1 (protein, UniProt Q64028 1-1010)
chain: METESEQNSSSTNGSSSSGASSRPQIAQMSLYERQAVQALQALQRQPNAAQYFHQFMLQQQLSNAQLHSLAAVQQATIAASRQASSPNSSTAQQQTATTQASMNLATTSAAQLISRSQSVSSPSATTLTQSVLLGNTTSPPLNQSQAQMYLRPQLGNLLQVNRTLGRNVPLASQLILMPNGAVAAVQQEVPPAQSPGVHADADQVQNLAVRNQQASAQGPQMPGSTQKAIPPGASPVSGLSQTSSQALAVAQASSGASGQSLNLSQAGGGSGNSLPGSMGPGGGGQAPGGLGQLPSSGLTGGSCPRKGTGVVQPLPAAQTVTVSQGSQTEAESAAAKKAEADGSGQQSVGMNLTRTATPAPSQTLISSATYTQIQPHSLIQQQQQIHLQQKQVVIQQQIAIHHQQQFQHRQSQLLHTATHLQLAQQQQQQQQQQQQQQQQQQQQQQGTTLTAPQPPQVPPTQQVPPSQSQQQAQTLVVQPMLQSSPLTLPPEPTSKPPIPIQSKPPVAPIKPPQLGAAKMSATQQPPPHIPVQVVGTRQPGSAQAQALGLAQLAAAVPTPRGITGAVQPGQAHLASSPPSSQAAPGALQECPPALAAGMTLAPVQGTAHVVKGGPTASSPVVAQVPAAFYMQSVHLPGKAQTLAVKRKAESEEERDDLSALASVLPTKASPAAESPKVIEEKNSLGEKAEPVASLNANPPNSDLVALAPTPSAPPPTLALVSRQMGDSKPPQAIVKPQILTHIIEGFVIQEGAEPFPVGCSQFLKETKKPLQAGLPTGLNESQPSGPLGGDSPSVELEKKANLLKCEYCGKYAPAEQFRGSKRFCSMTCAKRYNVSCSHQFRLKRKKMKEFQEASYARVRRRGPRRSSSDIARAKIQGKRHRGQEDSSRGSDNSSYDEALSPTSPGPLSVRAGHGERDLGNTITTPSTPELQGINPVFLSSNPSQWSVEEVYEFIASLQGCQEIAEEFRSQEIDGQALLLLKEEHLMSAMNIKLGPALKICAKINVLKET
B5: Zcchc8 (protein, UniProt Q9CYA6 1-709)
chain: MAAGVDFGDLELFEAFDPPEESTPKPVHTRFKDDEEEEDDDDDENGVGDAELQEQLRRCEATIEQLRAENQELKRKLNILTRPSGILVSNTKIDGPLLQILFMNNAISKQYHQEIEEFVSNLVKRFEEQQKNDVEKTSFSLLPQPSSVMLEEDHKVEESCAVKNNKEAFSVVGSVLYFTNFCLDKLGQPLLNENPQLTEGWEIPKYQQVFSHIVPLEGQEMQVKAKRPKPHCFNCGSEEHQMKECPMPRNAARISEKRKEYMDACGEASGQSFQQRYHAEEVEERFGRFKPGVISEELQDALGVTDKSLPPFIYRMRQLGYPPGWLKEAELENSGLALYDGNDDADGETETGEIQNKNVTYDLSKLVNYPGFNISTPRGIPDEWRMFGSIPMQACQQKDVFASYLNSNIQSPSMRSSGKRSSSQSSPNSPKKQRKEGSAAASPADMELDSDVEIPPGSQSSKAFQFQPPLPPGTPPPLPQGTPPPLFTPPLPKGTPPLTPSDSPQARPAASAMDEDALTLEELEEQQRQIWAALQQAEGGNGDSDVPGDTPLTGNSVASSPCPNEFDLPVPEGKALEKPVLAEPQEPAASVDTAGPEPSCSPAAGAAVLSQREEEAAAEGGPGDALLDNGGVLNMNMSNGSNQQPIHPDSRPPMAPKTHSPVPDMSKFATGITPFEFENMAESTGMYLRIRNLLKNSPRNQQKNKKTCE
B6: Zmym2 (protein, UniProt Q9CU65 1-1376)
chain: MDTSSVGTLELTDQTPVLLGSTAMATSLTNVGNSFSGPPNPLVSRSSKFQNSSVEDDDDVVFIEPVQPPPSSAPLVADQRPITFTSSKNEELQGNDPKILPSSKELAPQKGSVSETIVIDDEEDMETNQGQEKSSSNFIERRPSETKNRTNDVDFSSSTFSRSKVNAGVSNSGITTEPDSEIQIANVTTLETGVSSVSDGQLESTDGRDMNLMITHVTSLHNTSLGDGSNGLQSSNFGVNIQTYTPSLTSQTKAGVGPFNPGRMNVAGDVFQNGESAPHHNPDSWISQSASFPRNQKQQGVDSLSPVASLPKQIFQPSNQQPTKPVKVTCANCKKPLQKGQTAYQRKGSAHLFCSTTCLSSFSHKPAPKKLCVMCKKDITTMKGTIVAQVDSSESFQEFCSTSCLSLYEDKQSPAKGALNKSRCTICGKLTEIRHEVSFKNMTHKLCSDHCFNRYRMANGLIMNCCEQCGEYLPSKGAGNNVLVVDGQQKRFCCQSCVTEYKQVGSHPSFLKEVRDHMQDSFLMQPEKYGKLTTCTGCRTQCRFFDMTQCIGPNGYMEPYCSTACMNSHKTKYAKSQSLGIICHFCKRNSLPQYQATMPDGKLYNFCNSSCVAKFQALSMQSSPNGQFVAPSDIQLKCNYCKNSFCSKPEILEWENKVHQFCSKTCSDDYKKLHCIVTYCEYCQEEKTLHETVNFSGVKRPFCSEGCKLLYKQDFARRLGLRCVTCNYCSQLCKKGATKELDGVVRDFCSEDCCKKFQEWYYKAARCDCCKSQGTLKERVQWRGEMKHFCDQHCLLRFYCQQNEPNMTTQKGPENLHYDQGCQTSRTKMTGSAPPPSPTPNKEMKNKAILCKPLTMTKATYCKPHMQTKSCQTDENWKTEYVPVPIPVPVYVPVPMHMYSQNIPVPTTVPVPVPVPVFLPAPLDSSEKIPATVEDLKSKVSSDPLDSELLTMTDMMTEEEGKAEASNINSVIIETDIIGSDLTKNSDPDIQSNMPDVPYEPDLDIEIDFPRAAEELDMENEFLLPPVFGEEYEEQPRPRSKKKGTKRKAVSGYQSHDDSSDNSECSFPFKYTYGVNAWKHWVKTRQLDEDLLVLDELKSSKSVKLKEDLLSHTTAELNYGLAHFVNEIRRPNGENYAPDSIYYLCLGIQEYLCGSNRKDNIFIDPGYQMFEQELNKILRSWQPSILPDGSIFSRVEEDYLWRIKQLGSHSPVALLNTLFYFNTKYFGLKTVEQHLRLSFGTVFRHWKKNPLTMENKACLRYQVSSLCGTDNEDKIATGKRKHEDDEPVFEQVENTANPSRCPVKMFECYLSKSPQNLNQRMDVFYLQPECSSSTDSPVWYTSTSLDRNTLENMLVRVLLVKDIYDKDNYELDEDTD

These are yes or no findings as the source states them, for the method shown. Binding seen in cells or lysates may run through a third protein. These calls come from enrichment with a bait or labelling near it, and not all partners need be listed.

The first assay has as its target Oct4 (Pou5f1) (mouse (endogenous in 46C ESCs)) (UniProt P20263). The assay is described as follows: affinity purification with mass spectrometry; immunoprecipitation of endogenous Oct4 (antibody sc-8628 cross-linked to protein G Sepharose) from 1 ml 46C ESC nuclear extract, Benzonase, washes with C-100*, 4°C, boiled in SDS-loading dye; control goat IgG.
B1: the binding result is recorded as “binds”.

For B2, the binding entry is “binds”.

The target in another assay is FLAG-Oct4 (F-Oct4) (mouse) (UniProt P20263). Nature of the assay: affinity purification with mass spectrometry; FLAG-affinity purification of F-Oct4 from 1.5 ml ESC nuclear extract on anti-FLAG M2 agarose, buffer C-100 (20 mM HEPES pH 7.6, 100 mM KCl), washes with 0.02% NP-40, Benzonase, 4°C, FLAG peptide elution; three purifications; control ZHBTc4 extract.
With B3, the binding entry is listed as “binds”.

On to B1, for which the binding entry was “binds”.

Regarding B4, the binding entry was “binds”.

As to B5, the binding result is reported as “binds”.

Regarding B6, the binding result was “binds”.

For the molecule B2, the binding entry was “binds”.
